# Experiment: Plasma Abeta and hs-CRP levels
# Type: in vivo, human
# Conditions: about 900 mg/d, 24 weeks
smiles,measurement,value
"CC/C=C\C/C=C\C/C=C\C/C=C\C/C=C\C/C=C\CCC(=O)O [DHA, (all-Z)-4,7,10,13,16,19-docosahexaenoic acid]","Abeta1-40,1-42 plasma levels, DHA versus placebo",not significantly different
same,"hs-CRP plasma levels, DHA versus placebo",not significantly different
